For this test, the target named is T1, Human CD73 27-549 with a C-terminal His6-tag, deglycosylated with PNGaseF (human) (UniProt P21589).
T1 sequence (chain, deglycosylated with PNGaseF; glycan remaining at Asn311): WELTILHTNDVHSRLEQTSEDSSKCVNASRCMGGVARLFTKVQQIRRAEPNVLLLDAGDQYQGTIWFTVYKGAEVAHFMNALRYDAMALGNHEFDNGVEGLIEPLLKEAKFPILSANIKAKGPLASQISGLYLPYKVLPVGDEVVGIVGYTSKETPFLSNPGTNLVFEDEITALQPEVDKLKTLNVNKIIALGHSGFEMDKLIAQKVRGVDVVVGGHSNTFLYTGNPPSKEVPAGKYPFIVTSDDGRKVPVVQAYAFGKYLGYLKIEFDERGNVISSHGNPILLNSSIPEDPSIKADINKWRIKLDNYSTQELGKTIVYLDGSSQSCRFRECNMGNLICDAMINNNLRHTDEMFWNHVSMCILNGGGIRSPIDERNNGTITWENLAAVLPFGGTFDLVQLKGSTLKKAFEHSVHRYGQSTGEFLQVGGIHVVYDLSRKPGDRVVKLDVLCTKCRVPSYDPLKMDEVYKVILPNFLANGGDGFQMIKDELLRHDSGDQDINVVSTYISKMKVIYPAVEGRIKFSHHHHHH
The test can be described thus: X-ray co-crystal structure.

No constants are given. Whether binding was seen depends on the method and setting. Some results given as binding are weak or reduced against the parent protein; the word gives no strength. Where a sequence is shown, tags or fusion partners need not be part of it.

B1: TB19 Fab (Fab, V domains shown)
VH: QEQLQESGPGLVKPSETLSLTCTVSGGSIRNNYYNWIRQPAGKGLEWIGRIYISGTTNSNPSLKSRVTMSIDTSKNQFSLKLSSVTAADTAIYYCAREHYVSGTSLDNWGQGTLVTVSS
VL: EIVMTQSPTTLSLSPGERATLSCRASQSVNTNYFSWYQQKPGLTPRLLIYGTSTRATGIPARFSGSGSGTDFTLTISSLQPEDFGIYYCQQDYNLPYTFGQGTYLEIK
In the case of B1, the binding entry is given as “binds”.

The record behind these values is US20220403041A1 (Sanofi, published 2022).
